In data set [1] the test system is His-MsILR3 (Medicago sativa (alfalfa)). The data set is described as follows: EMSA. As to conditions: Chemiluminescent EMSA kit (GS009, Beyotime), pH and temperature not stated, recombinant protein, protein details: His (pCold-His vector), label: biotin. For orientation: A gel shift assay detects complexes by their altered migration in electrophoresis.
Data set [2] deals with His-MsAREB1 (Medicago sativa (alfalfa)). The data set is described as follows: EMSA. As to conditions: Chemiluminescent EMSA kit (GS009, Beyotime), pH and temperature not stated, recombinant protein, protein details: His (pCold-His vector), label: biotin.
Data set [3] relates to His-MsILR3 (Medicago sativa (alfalfa)). The experiment in a line: competition with a labelled probe. As to conditions: increasing unlabelled competitor against biotin N1 decreased binding; Chemiluminescent EMSA kit (GS009, Beyotime); pH and temperature not stated; recombinant protein; protein details: His (pCold-His vector).
The subject of data set [4] is His-MsAREB1 (Medicago sativa (alfalfa)). The data set is described as follows: competition with a labelled probe. As to conditions: unlabelled competitor against biotin N1 decreased binding; Chemiluminescent EMSA kit (GS009, Beyotime); pH and temperature not stated; recombinant protein; protein details: His (pCold-His vector).

Construct, isoform or probe ends are uncertain for at least one entry. For some assays here: Negatives hold for the conditions tested. For some assays here: The comparison behind a weaker result is the experiment's own reference, which may not be listed here.

For the sequence “TGGCAACTGCCACGTGTGCTTCAAAA (double strand) [MsMIOX2 promoter G-box probe]”, the binding result in data set [1] was “binds”; in data set [1] (with His-MsAREB1 (MsILR3 at 1- and 2-fold MsAREB1), signal rose with more MsILR3) it was “binds more weakly”; in data set [2], “binds”; in data set [2] (with His-MsILR3 at 1- and 2-fold MsAREB1) it was “binds more weakly”.
Regarding “TGGCAACTGCCACGTGTGCTTCAAAA (double strand) [Unlabelled MsMIOX2 promoter G-box competitor]”, the binding result in data set [3] and in data set [4] was “binds” throughout.
Turning to “TGGCAACTGCTTCATGTGCTTCAAAA (double strand) [mMsMIOX2 promoter G-box mutant probe]”, the binding result in data set [1] and in data set [2] was “no binding” throughout.

The record behind these values is publication PMC12310818.
